In doi:10.1101/2023.08.11.553033:
For at least one entry, the source does not settle the construct or the ends of the probe. For part of these data: Weaker means in comparison with the reference protein, sequence or condition of that experiment. At least one verdict was read from the data and is not stated in words by the source. Protein sequences can lack the tags named with them.

Assays:
[1] = target: T1, Pdr1p DBD (Saccharomyces cerevisiae) (UniProt P12383); experiment: fluorescence polarization; details: residues 1-207
T1 sequence (looked up): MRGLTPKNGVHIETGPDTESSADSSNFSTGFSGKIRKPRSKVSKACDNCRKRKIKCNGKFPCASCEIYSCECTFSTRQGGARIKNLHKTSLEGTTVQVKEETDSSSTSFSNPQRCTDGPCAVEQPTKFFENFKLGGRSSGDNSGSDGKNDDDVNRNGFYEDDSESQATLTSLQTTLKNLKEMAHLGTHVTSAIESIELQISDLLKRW

[2] = target: T2, Pdr3p DBD (Saccharomyces cerevisiae) (UniProt P33200); experiment: fluorescence polarization; details: residues 1-184
T2 sequence (looked up): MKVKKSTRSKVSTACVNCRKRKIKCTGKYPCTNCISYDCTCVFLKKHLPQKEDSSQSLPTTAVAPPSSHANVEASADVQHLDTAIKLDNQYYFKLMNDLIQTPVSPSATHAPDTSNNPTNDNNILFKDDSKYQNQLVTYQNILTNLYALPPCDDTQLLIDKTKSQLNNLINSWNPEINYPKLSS

[3] = target: T2, Pdr3p DBD (Saccharomyces cerevisiae); experiment: competition fluorescence polarization; details: vs FAM-PDR5_4; residues 1-184
[4] = type D weaker, slightly tighter than half site (229 nM)

“ATGTCTCCGCGGAACTCT (double strand) [PDR5_1 18mer]” was tested, and the Kd ([1]; derived: PDR5_3 binds 1.76-fold tighter) was 92 nM and the Kd [2] was 173 nM.

“ATTTCTCCGCGGAATTAC (double strand) [Fig 4 type A PDRE (ATTTCTCCGCGGAATTAC)]”: binds ([1]; type A: highest affinity class); binds more weakly ([2]; type A among weakest).

“TCGCTTCCGCGGGATGCC (double strand) [Fig 4 type D PDRE (TCGCTTCCGCGGGATGCC)]”: binds more weakly [1, 4]; binds more weakly ([2]; type D among weakest).

“TCTGCTCCGTGGAACTAA (double strand) [Fig 4 type B PDRE (TCTGCTCCGTGGAACTAA)]”: binds [1]; binds [2].

“CGGACTCCGCGCAAGAAT (double strand) [Fig 4 type C PDRE (CGGACTCCGCGCAAGAAT)]”: binds more weakly ([1]; type C weaker than A and B); binds ([2]; type C strongest class).

“TTTATTCCGTGGAAAAGG (double strand) [Fig 4 type B PDRE (TTTATTCCGTGGAAAAGG)]”: binds [1]; binds [2].

For “GTGATTCCGTGGAAAGGT (double strand) [PDR5_2 18mer]”, the Kd ([1]; derived: 1.33-fold tighter than PDR5_4) was 89 nM and the Kd [2] was 284 nM.

“AAACTTCCGTGGAAAACC (double strand) [PDR5_4 G4T G14A (paper numbering)]”: binds [3].

“ACCTTTCCGCGCATATAC (double strand) [Fig 4 type C PDRE (ACCTTTCCGCGCATATAC)]”: binds more weakly ([1]; type C weaker than A and B); binds ([2]; type C strongest class).

In the case of “AAACGTCCGTGGAGAACC (double strand) [PDR5_4 18mer]”, the Kd [1] is reported as 118 nM and the Kd ([2]; derived: 1.44-fold tighter than PDR5_2) is reported as 197 nM.

“GGCACTCCGCGGGGCCCG (double strand) [Fig 4 type D PDRE (GGCACTCCGCGGGGCCCG)]”: binds more weakly [1, 4]; binds more weakly ([2]; type D among weakest).

Sequence “CTCTTTCCGCGGAATCGC (double strand) [PDR5_3 18mer]” has a Kd [1] of 52 nM and a Kd ([2]; derived: PDR5_1 binds 1.12-fold tighter) of 194 nM.

“CAGTTTCCGCGCAAGAAT (double strand) [Fig 4 type C PDRE (CAGTTTCCGCGCAAGAAT)]”: binds more weakly ([1]; type C weaker than A and B); binds ([2]; type C strongest class).

“TTGTTTCCGCGGAGCTGC (double strand) [Fig 4 type A PDRE (TTGTTTCCGCGGAGCTGC)]”: binds ([1]; type A: highest affinity class); binds more weakly ([2]; type A among weakest).
